Test results published in patent US20080227848A1.
These are yes or no findings as the source states them, for the method shown. Binding seen in cells or lysates may run through a third protein. Some entries that bind do so weakly or less than the wild type.

By UniProt entry, the sequences of proteins in these tests, tags left out. Where a name states a change or a piece, a line headed by the entry shows the natural chain unless it says otherwise.
UniProt P19838: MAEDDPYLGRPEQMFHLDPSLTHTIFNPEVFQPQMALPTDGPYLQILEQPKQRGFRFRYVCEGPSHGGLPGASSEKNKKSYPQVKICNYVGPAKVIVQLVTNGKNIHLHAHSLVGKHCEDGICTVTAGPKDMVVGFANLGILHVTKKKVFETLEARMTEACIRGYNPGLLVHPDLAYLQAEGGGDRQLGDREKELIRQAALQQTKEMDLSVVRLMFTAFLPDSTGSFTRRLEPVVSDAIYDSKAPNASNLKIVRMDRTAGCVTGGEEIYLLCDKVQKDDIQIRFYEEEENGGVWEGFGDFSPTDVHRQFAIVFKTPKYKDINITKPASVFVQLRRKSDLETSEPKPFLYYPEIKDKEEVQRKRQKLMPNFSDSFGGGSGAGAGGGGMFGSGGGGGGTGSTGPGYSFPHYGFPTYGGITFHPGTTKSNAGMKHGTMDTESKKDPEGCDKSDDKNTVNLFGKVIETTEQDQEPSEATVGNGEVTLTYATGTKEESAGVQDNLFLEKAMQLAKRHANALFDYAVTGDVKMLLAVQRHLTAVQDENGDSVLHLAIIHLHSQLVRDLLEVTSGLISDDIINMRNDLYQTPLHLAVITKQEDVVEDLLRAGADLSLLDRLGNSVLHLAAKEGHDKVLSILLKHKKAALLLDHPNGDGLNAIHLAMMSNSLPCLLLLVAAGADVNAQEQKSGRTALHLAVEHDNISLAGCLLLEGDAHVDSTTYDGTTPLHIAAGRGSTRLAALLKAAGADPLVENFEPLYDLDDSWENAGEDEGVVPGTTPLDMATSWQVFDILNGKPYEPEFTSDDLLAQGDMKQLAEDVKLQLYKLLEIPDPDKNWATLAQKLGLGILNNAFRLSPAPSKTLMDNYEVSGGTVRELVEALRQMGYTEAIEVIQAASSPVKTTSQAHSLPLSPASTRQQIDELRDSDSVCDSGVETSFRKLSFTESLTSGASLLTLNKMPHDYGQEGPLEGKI
UniProt P25963: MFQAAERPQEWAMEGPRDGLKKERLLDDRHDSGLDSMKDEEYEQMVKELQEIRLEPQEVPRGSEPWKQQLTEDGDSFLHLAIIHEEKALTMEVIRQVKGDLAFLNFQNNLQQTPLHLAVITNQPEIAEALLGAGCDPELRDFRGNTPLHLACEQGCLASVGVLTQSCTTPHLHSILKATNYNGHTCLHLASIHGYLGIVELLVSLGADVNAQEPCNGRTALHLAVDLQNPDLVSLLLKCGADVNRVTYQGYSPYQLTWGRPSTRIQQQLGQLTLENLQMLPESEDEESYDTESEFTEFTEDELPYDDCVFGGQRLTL
UniProt Q9NWT6: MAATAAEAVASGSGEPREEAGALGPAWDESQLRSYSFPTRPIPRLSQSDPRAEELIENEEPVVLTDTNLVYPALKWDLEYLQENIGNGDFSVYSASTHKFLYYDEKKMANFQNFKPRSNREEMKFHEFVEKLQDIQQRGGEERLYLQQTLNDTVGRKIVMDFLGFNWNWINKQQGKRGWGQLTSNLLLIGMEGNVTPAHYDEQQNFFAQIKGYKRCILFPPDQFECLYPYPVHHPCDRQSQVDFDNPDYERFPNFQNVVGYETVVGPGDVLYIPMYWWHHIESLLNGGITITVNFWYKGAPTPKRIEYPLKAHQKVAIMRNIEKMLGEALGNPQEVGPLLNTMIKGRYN

Tests used:
[1] = molecular target: endogenous p105 protein (in cultured cells) (UniProt P19838); test: co-immunoprecipitation from HeLa cell lysate: anti-p105 IP, anti-FIH immunoblot
[2] = molecular target: endogenous IkBα (in cultured cells) (UniProt P25963); test: co-immunoprecipitation of endogenous proteins: FIH IP, anti-IkBα immunoblot
[3] = molecular target: endogenous p105 protein (in cultured cells) (UniProt P19838); test: co-immunoprecipitation of endogenous proteins: anti-p105 IP, anti-FIH immunoblot

Measured: binding

endogenous FIH (in cultured cells) (from UniProt Q9NWT6 2-349) (enzyme)
binds: all assays above
